# The other results are listed elsewhere or left out.
# The chains behind the UniProt entries cited, without tags or fusion partners. Where a name states a change or a piece, a line headed by the entry shows the natural chain unless it says otherwise.
# UniProt Q16643: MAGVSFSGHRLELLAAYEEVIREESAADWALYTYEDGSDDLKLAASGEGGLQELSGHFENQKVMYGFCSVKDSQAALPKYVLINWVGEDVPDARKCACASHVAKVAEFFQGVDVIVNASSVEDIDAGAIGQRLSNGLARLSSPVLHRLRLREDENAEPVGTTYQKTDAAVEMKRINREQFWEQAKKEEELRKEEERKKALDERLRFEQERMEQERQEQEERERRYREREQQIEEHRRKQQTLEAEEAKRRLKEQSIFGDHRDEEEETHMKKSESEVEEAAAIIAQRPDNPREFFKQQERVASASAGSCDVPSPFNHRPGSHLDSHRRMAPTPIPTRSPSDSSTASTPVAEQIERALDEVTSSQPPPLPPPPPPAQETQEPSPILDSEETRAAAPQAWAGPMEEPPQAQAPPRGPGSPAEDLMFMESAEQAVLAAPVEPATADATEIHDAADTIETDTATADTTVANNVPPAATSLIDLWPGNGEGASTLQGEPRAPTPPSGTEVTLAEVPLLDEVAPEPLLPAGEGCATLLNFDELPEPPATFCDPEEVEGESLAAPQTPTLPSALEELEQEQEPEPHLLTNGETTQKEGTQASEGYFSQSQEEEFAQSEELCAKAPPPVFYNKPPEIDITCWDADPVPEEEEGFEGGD
# UniProt Q9BTE1, whole entry, looked up: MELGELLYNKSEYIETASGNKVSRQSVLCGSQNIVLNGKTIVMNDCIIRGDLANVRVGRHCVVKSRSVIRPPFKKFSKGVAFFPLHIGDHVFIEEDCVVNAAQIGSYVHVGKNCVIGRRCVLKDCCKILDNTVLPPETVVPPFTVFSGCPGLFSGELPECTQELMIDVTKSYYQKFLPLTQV
# UniProt Q8N465: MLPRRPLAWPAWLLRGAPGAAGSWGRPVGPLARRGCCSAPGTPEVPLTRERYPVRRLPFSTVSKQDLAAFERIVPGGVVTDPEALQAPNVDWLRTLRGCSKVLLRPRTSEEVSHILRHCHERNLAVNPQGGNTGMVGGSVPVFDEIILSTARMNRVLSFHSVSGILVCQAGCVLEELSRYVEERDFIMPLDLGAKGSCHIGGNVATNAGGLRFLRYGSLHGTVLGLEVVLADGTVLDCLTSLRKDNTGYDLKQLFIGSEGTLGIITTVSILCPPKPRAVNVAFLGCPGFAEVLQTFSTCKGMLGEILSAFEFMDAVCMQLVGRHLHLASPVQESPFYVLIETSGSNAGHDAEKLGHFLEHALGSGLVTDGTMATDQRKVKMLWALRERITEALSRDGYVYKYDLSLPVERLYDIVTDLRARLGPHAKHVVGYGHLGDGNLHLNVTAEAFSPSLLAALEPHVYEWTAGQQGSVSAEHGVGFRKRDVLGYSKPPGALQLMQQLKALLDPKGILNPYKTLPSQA
# UniProt Q5T1V6: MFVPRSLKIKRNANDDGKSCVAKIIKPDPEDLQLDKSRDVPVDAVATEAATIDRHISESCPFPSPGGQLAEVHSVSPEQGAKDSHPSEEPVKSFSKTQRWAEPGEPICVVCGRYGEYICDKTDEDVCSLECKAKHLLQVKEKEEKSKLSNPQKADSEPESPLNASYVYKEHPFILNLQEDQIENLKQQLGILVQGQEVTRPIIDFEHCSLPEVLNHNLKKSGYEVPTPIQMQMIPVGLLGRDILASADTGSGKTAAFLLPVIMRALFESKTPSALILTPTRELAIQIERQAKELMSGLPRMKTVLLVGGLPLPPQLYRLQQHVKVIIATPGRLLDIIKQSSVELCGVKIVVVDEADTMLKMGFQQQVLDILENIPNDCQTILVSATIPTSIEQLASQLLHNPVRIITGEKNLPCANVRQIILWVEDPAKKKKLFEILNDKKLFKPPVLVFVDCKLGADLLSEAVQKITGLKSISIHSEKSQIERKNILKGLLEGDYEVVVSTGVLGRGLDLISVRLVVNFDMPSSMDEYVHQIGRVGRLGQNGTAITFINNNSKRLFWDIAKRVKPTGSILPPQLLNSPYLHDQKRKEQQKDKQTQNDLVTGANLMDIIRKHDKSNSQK
# UniProt Q16850: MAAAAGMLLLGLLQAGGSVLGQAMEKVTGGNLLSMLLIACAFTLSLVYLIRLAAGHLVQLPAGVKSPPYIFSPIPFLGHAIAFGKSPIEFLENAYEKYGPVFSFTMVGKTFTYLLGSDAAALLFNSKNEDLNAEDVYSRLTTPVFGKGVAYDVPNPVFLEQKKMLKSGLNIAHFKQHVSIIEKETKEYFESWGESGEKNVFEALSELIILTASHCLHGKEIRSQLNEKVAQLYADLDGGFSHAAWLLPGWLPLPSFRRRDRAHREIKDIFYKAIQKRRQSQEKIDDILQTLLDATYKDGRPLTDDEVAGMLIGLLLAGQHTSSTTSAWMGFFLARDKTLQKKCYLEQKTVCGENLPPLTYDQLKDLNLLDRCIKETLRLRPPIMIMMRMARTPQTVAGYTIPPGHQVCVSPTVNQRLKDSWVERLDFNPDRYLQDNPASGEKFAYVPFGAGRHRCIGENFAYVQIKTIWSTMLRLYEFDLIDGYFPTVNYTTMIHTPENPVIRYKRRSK
# UniProt Q9H4E7, whole entry, looked up: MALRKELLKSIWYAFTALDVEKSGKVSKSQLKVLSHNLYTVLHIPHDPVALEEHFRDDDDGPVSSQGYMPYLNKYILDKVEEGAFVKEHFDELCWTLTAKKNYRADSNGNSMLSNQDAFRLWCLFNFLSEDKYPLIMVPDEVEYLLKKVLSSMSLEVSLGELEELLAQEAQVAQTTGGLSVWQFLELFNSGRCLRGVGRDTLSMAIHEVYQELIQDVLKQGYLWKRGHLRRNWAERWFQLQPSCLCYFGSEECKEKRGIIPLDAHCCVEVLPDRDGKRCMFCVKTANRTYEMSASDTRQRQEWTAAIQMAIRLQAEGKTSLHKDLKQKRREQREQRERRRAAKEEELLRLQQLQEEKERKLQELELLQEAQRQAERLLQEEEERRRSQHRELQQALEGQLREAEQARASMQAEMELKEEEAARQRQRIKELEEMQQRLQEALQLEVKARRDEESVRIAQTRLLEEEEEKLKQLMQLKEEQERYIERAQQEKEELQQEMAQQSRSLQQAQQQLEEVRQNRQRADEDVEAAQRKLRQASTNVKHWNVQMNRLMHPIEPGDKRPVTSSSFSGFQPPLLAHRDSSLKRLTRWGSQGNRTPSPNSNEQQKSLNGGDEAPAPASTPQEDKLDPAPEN
# UniProt P61803: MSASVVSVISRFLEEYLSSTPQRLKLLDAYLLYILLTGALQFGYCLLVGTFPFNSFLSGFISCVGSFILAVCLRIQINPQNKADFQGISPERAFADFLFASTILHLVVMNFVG
# UniProt P0CG12: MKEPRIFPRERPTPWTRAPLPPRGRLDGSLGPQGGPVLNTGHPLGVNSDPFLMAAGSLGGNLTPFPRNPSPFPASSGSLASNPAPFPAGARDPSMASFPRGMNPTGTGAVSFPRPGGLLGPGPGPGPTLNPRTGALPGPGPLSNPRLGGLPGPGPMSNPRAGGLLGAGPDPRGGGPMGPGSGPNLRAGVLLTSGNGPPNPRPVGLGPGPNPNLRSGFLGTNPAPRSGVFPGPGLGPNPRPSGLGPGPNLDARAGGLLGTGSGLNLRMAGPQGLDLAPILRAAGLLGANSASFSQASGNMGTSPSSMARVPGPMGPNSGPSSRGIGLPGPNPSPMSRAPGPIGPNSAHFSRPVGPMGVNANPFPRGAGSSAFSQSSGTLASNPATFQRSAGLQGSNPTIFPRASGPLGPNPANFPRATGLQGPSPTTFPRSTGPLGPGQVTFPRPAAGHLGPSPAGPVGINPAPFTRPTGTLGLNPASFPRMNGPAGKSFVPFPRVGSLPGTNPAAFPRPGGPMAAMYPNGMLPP
# UniProt P27707: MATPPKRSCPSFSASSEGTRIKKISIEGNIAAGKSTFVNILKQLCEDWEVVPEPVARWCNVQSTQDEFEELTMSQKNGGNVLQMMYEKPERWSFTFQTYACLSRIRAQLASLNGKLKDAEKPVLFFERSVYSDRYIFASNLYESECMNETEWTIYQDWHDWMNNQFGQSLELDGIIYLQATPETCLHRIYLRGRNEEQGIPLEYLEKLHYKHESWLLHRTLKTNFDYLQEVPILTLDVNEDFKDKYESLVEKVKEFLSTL
# UniProt P30046: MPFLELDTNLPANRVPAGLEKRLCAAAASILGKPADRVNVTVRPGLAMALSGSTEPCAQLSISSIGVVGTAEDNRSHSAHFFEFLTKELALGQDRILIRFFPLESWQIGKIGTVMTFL
# UniProt Q9GZP9: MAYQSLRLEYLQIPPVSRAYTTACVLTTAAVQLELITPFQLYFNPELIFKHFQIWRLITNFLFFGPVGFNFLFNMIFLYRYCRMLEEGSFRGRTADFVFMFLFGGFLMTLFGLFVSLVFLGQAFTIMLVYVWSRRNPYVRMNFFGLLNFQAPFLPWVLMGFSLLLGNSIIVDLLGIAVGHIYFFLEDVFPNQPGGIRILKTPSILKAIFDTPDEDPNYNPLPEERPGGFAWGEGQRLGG
# UniProt Q9UK59: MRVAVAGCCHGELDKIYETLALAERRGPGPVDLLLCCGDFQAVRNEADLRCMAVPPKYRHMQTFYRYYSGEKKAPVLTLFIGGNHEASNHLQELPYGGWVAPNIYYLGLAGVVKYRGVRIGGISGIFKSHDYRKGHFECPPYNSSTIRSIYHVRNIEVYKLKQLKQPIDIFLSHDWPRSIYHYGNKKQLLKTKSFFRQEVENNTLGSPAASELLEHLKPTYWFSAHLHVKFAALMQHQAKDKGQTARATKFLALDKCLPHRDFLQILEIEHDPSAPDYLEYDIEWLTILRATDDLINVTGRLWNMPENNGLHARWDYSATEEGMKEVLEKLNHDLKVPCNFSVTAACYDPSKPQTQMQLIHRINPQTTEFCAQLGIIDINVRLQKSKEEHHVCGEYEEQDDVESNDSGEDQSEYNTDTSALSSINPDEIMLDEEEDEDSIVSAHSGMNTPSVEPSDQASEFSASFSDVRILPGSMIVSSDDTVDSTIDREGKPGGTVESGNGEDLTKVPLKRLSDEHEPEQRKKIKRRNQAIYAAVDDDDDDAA
# UniProt Q5TAQ9: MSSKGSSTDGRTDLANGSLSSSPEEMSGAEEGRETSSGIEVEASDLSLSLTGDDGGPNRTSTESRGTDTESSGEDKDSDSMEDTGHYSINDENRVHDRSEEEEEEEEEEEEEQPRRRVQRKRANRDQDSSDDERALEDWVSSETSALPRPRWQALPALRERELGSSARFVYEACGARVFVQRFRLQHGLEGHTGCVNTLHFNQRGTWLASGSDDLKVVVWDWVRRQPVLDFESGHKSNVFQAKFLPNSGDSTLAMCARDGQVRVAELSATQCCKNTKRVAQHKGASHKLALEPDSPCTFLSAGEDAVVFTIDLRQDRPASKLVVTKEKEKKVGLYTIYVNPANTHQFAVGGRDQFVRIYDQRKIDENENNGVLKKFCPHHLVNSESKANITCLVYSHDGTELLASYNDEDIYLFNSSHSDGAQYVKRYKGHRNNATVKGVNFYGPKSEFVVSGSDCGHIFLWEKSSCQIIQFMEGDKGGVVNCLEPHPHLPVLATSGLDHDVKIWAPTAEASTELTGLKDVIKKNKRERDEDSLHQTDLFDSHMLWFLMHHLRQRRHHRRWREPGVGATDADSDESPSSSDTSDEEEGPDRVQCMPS
# UniProt Q9BUN8: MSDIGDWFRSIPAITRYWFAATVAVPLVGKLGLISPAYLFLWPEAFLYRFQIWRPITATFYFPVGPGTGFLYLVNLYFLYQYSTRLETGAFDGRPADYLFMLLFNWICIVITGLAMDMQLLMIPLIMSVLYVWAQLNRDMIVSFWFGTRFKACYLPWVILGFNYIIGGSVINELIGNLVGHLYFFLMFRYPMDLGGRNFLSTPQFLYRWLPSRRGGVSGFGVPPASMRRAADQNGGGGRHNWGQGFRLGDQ
# UniProt P26196: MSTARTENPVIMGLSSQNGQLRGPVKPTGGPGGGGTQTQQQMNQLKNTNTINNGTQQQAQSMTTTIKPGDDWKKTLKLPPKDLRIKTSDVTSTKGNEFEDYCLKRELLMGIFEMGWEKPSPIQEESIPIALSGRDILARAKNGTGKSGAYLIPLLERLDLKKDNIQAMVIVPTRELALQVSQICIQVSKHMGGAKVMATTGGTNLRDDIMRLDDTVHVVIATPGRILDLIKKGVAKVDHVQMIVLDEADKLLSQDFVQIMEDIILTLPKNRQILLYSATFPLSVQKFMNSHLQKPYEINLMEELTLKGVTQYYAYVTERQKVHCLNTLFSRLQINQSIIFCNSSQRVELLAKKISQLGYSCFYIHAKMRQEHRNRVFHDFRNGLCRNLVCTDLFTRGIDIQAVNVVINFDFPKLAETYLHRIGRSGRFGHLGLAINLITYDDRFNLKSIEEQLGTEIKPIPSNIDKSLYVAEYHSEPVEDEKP
# UniProt O43583: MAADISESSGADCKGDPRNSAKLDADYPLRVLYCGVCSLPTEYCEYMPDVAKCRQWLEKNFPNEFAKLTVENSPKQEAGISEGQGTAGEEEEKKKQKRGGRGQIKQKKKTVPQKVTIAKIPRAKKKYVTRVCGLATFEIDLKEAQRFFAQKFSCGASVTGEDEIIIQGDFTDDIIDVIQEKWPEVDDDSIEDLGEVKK
# Compound: O=C(CCCCCCC(=O)Nc1ccccc1)NO [vorinostat]
# Assay: log2 fold change, soluble protein after heating vs DMSO (PISA); higher = thermal stabilisation; K562 lysate, 10 uM; active = over 0.2 and 3.5 SD of the protein, either way, in both replicates (recomputed)
# Summary of the method: (§1)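 Log-two fold change in thermal stability relative to solvent controls is reported from duplicates. For each sample, crude K562 extract from dounce-homogenised pellets in PBS pH 7.4 with 1 mM MgCl2, at 1 mg/mL protein, was treated with 10 μM compound for 30 min. Aliquots heated for 3 min across 48°C-58°C were pooled, brought to 0.5% NP-40 at 4°C and cleared at 21,000xg for 90 min. The supernatant was quantified by TMTpro 16plex LC-MS/MS with channel sums equalised.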
row,Target,log2 fold change
1,DENND4C (UniProt Q5VZ89),inactive: -0.136
2,DEK (UniProt P35659),inactive: 0.019
3,DBN1 (UniProt Q16643),inactive: -0.099
4,DDX21 (UniProt Q9NR30),inactive: 0.06
5,DCTN5 (UniProt Q9BTE1),inactive: 0.054
6,D2HGDH (UniProt Q8N465),inactive: 0.214
7,DDX39B isoform 2 (UniProt Q13838),inactive: 0.053
8,DFFA isoform 2 (UniProt O00273),inactive: 0.212
9,DDB2 (UniProt Q92466),inactive: 0.048
10,DDX59 (UniProt Q5T1V6),inactive: -0.213
11,CYP51A1 (UniProt Q16850),inactive: 0.017
12,DEF6 (UniProt Q9H4E7),active: -0.416
13,DAD1 (UniProt P61803),inactive: 0
14,DERPC (UniProt P0CG12),inactive: 0.213
15,DDX39A (UniProt O00148),active: -0.383
16,DCTN1 (UniProt Q14203),active: -0.261

row,Target,log2 fold change
1,DDA1 (UniProt Q9BW61),active: -0.289
2,DCK (UniProt P27707),inactive: 0.179
3,DDT (UniProt P30046),inactive: 0.092
4,DERL2 (UniProt Q9GZP9),inactive: 0.156
5,DBR1 (UniProt Q9UK59),inactive: 0.038
6,DAGLB (UniProt Q8NCG7),inactive: 0.062
7,DARS2 (UniProt Q6PI48),inactive: -0.172
8,DCP1A (UniProt Q9NPI6),active: -0.234
9,DCAF8 (UniProt Q5TAQ9),inactive: -0.028
10,DDI2 isoform 3 (UniProt Q5TDH0),inactive: 0.075
11,DENND1B (UniProt Q6P3S1),active: -1.3
12,DDX1 (UniProt Q92499),inactive: -0.092
13,DAPK1 isoform 3 (UniProt P53355),inactive: -0.477
14,DERL1 (UniProt Q9BUN8),inactive: 0.083
15,DDX6 (UniProt P26196),inactive: -0.022
16,DENR (UniProt O43583),inactive: 0.085

# Compound: O=C(O)c1ccc2c(c1)nc(Nc1cccc(Cl)c1)c1ccncc12 [silmitasertib]
# Assay: as above
# Summary of the method: as §1
row,Target,log2 fold change
1,DENND4C (UniProt Q5VZ89),inactive: 0.007
2,DEK (UniProt P35659),inactive: -0.018
3,DBN1 (UniProt Q16643),inactive: 0.02
4,DDX21 (UniProt Q9NR30),inactive: 0.041
5,DCTN5 (UniProt Q9BTE1),inactive: 0.023
6,D2HGDH (UniProt Q8N465),inactive: -0.027
7,DDX39B isoform 2 (UniProt Q13838),inactive: 0.021
8,DFFA isoform 2 (UniProt O00273),inactive: -0.061
9,DDB2 (UniProt Q92466),inactive: -0.022
10,DDX59 (UniProt Q5T1V6),inactive: -0.054
11,CYP51A1 (UniProt Q16850),inactive: -0.084
12,DEF6 (UniProt Q9H4E7),inactive: 0.032
13,DAD1 (UniProt P61803),inactive: 0.028
14,DERPC (UniProt P0CG12),inactive: -0.061
15,DDX39A (UniProt O00148),inactive: 0.017
16,DCTN1 (UniProt Q14203),inactive: -0.003

row,Target,log2 fold change
1,DDA1 (UniProt Q9BW61),inactive: -0.006
2,DCK (UniProt P27707),inactive: -0.018
3,DDT (UniProt P30046),inactive: -0.011
4,DERL2 (UniProt Q9GZP9),inactive: 0.007
5,DBR1 (UniProt Q9UK59),inactive: 0.021
6,DAGLB (UniProt Q8NCG7),inactive: 0.006
7,DARS2 (UniProt Q6PI48),inactive: 0.027
8,DCP1A (UniProt Q9NPI6),inactive: 0.022
9,DCAF8 (UniProt Q5TAQ9),inactive: 0.005
10,DDI2 isoform 3 (UniProt Q5TDH0),inactive: 0.001
11,DENND1B (UniProt Q6P3S1),inactive: 0.28
12,DDX1 (UniProt Q92499),inactive: 0.008
13,DAPK1 isoform 3 (UniProt P53355),active: 0.833
14,DERL1 (UniProt Q9BUN8),inactive: -0.016
15,DDX6 (UniProt P26196),inactive: 0.018
16,DENR (UniProt O43583),inactive: -0.039

# Reference: the supplement of paper PMC10849652
